Reference: patent US20250213523A1, “COMBINATION OF HDAC INHIBITORS AND STATINS FOR USE IN THE TREATMENT OF PANCREATIC CANCER” (ISTITUTO NAZIONALE TUMORI IRCCS - FONDAZIONE G. PASCALE, priority 2022, published 2025)

Assays:
KPC ID11 = test: Cell proliferation assay (Sulforhodamine B), IC50; type: cell-based, C57/BL6 mice; settings: Mus musculus; KPC ID11, 96 hours of treatment; read-out: IC50 96 h mean ± SD
Description: (§1) FIG. 1. Pancreatic Cancer Cell lines features. A. Basal mRNA basal levels of EMT markers Vimentin and E-Cadherin in PDAC cell lines L3.6pl, BxPC3, COLO357, PANC28, PANC1, ASPC1 and MIAPACA2, in normal pancreatic cells HPDE cells, as well as in 2 established PDX-derived primary cells KPC ID11 and KPC ID95 were determined by qRT-PCR. […] Cells were grown for 48 h before preparation of cell lysates. Proteins were separated by SDS-PAGE and transferred to PVDF membranes using standard protocols. The membranes were probed with specific antibodies and Ponceau Red as total protein loading controls. Data represents representative results of at least three independent experiments.
(§2) Cell proliferation was measured in 96-well plates in cells untreated and treated with described drugs as single agent or in combination. […] Synergism, additivity, and antagonism were quantified after an evaluation of the Combination Index (CI), which was calculated by the Chou-Talalay equation with CalcuSyn software (Biosoft, Cambridge, UK-Chou T C. Cancer Res. 2010 Jan. 15; 70(2):440-6.), as described elsewhere (Terranova-Barberio M, J Exp Clin Cancer Res. 2017; 36(1):177); Bruzzese et al, J Cell Physiol 2011, 226(9):2378-2390). […] The DRI determined the magnitude of dose reduction allowed for each drug when given in combination, compared with the concentration of a single agent that is needed to achieve the same effect. […]

KPC ID95 = test: Cell proliferation assay (Sulforhodamine B), IC50; type: cell-based, C57/BL6 mice; settings: Mus musculus; KPC ID95, 96 hours of treatment; read-out: IC50 96 h mean ± SD
Description: as §1, §2

CC(C)c1c(C(=O)Nc2ccccc2)c(-c2ccccc2)c(-c2ccc(F)cc2)n1CC[C@@H](O)C[C@@H](O)CC(=O)O [ATOR, Atorvastatin]
IC50 (KPC ID11): 3.1 ± 0.2 µM
IC50 (KPC ID95): 4 ± 0.22 µM
